In article PMC7356578:
Results are given in words; binding and its absence hold for the method and conditions named. Binding calls can cover weak binding; strength is not graded here.

Amino acid sequences for entries named in this document (tags omitted). A change or cut given only in a name is not applied to a line headed by its entry.
UniProt P06870: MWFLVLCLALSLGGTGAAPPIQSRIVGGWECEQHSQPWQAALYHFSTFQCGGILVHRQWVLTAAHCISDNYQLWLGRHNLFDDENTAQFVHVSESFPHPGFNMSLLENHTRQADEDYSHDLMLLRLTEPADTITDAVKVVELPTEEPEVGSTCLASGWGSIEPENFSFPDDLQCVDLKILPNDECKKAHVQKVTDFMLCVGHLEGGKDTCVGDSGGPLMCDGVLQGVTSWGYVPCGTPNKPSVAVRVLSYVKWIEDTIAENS

Molecular target: KLK1-99Lm (KLK1 with nine residues of its 99 loop deleted) (human) (UniProt P06870)
Experiment: SDS-stable covalent serpin-protease complex on reducing SDS-PAGE; 2 µg rKAL mixed with 0.5-1 µg KLK1 (2-3 min), 5 µg KLK1-99Lm (20 min) or 0.5 µg KLK1-70Lm (2 min) at room temperature, no heparin; Coomassie stain; both purified

- binding: binds
B1: Recombinant human kallistatin (rKAL), wild type (protein, UniProt P29622 45-427)
chain: GSPSLKIAPANADFAFRFYYLIASETPGKNIFFSPLSISAAYAMLSLGACSHSRSQILEGLGFNLTELSESDVHRGFQHLLHTLNLPGHGLETRVGSALFLSHNLKFLAKFLNDTMAVYEAKLFHTNFYDTVGTIQLINDHVKKETRGKIVDLVSELKKDVLMVLVNYIYFKALWEKPFISSRTTPKDFYVDENTTVRVPMMLQDQEHHWYLHDRYLPCSVLRMDYKGDATVFFILPNQGKMREIEEVLTPEMLMRWNNLLRKRNFYKKLELHLPKFSISGSYVLDQILPRLGFTDLFSKWADLSGITKQQKLEASKSFHKATLDVDEAGTEAAAATSFAIKFFSAQTNRHILRFNRPFLVVIFSTSTQSVLFLGKVVDPTKP
